Drawing on article PMC7862700, this text covers binding signal for 24 sequences.

Protein sequences, listed by entry. Tags and fused reporters are not part of them. Lines headed by an entry give the natural chain unless they say otherwise; changes in a name come on top.
UniProt P32519: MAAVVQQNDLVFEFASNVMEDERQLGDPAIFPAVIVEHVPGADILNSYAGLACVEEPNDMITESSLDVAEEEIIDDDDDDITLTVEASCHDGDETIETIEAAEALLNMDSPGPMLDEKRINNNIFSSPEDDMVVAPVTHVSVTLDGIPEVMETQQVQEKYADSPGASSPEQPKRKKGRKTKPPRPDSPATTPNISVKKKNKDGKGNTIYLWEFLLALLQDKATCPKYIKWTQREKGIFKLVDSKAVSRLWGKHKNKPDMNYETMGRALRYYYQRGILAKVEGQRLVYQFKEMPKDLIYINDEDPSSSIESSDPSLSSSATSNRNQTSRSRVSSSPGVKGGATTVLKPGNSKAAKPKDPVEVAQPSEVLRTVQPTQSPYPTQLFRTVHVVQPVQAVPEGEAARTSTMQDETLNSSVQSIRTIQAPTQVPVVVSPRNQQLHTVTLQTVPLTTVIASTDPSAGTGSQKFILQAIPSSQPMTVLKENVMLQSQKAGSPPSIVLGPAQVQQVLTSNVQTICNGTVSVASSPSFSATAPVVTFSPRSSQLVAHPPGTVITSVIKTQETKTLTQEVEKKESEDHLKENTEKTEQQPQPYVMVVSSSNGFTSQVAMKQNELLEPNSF
UniProt P50549: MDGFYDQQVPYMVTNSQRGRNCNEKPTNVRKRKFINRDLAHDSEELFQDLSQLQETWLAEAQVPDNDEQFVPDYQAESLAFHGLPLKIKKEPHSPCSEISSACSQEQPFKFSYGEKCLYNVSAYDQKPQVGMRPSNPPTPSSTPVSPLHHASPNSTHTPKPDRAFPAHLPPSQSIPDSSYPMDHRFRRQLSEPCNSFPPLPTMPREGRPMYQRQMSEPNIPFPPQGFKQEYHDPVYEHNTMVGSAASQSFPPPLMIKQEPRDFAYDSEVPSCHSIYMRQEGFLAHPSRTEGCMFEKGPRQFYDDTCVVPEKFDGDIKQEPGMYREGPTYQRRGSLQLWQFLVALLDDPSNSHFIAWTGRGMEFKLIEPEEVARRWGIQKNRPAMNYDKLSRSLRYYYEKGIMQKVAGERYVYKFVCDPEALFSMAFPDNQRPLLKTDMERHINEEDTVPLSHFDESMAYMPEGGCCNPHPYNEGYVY

Common to all, as to test: DAPPL (digital affinity profiling via proximity ligation, sequencing)
Conditions in all cases: 10 mM Tris-HCl pH 7.5, 50 mM NaCl, 1 mM DTT, 4% glycerol, room temperature, 30 min; GST-TFs on glutathione beads, 16-mer random dsDNA library, 0.1% …; high values mean tight binding; double strand, one strand shown; scale: fold enrichment (6-mer frequency, TF over GST control)

The target in one assay is T1, ERG (UniProt P11308).
T1 sequence: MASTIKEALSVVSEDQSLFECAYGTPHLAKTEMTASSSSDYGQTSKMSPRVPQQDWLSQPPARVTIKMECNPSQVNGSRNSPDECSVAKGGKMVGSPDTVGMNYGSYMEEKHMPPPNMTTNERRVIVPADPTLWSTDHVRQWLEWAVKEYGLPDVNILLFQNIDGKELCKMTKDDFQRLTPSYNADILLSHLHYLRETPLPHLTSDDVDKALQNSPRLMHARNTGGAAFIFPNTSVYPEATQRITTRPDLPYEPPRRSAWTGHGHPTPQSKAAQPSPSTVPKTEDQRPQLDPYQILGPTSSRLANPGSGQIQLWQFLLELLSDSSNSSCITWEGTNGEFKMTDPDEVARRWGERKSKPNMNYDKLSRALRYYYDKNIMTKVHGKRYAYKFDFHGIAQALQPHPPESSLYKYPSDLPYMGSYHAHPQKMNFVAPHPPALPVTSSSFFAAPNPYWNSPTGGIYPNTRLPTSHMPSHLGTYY

Another assay has as its target ELF1 (UniProt P32519).
In the next assay the target is T2, ELK4 (UniProt P28324-2).
T2 sequence: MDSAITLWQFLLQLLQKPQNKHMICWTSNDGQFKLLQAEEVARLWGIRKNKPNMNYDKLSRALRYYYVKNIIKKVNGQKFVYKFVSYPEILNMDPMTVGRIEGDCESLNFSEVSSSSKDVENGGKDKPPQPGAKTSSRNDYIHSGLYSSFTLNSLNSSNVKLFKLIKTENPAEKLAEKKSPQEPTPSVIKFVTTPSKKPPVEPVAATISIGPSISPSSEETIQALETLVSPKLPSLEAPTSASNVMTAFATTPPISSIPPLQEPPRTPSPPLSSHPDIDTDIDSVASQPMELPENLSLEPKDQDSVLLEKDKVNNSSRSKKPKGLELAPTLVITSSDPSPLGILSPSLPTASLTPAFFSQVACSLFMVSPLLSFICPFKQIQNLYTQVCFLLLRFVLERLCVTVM

For another assay, the target named is T3, ETV4 (UniProt P43268).
T3 sequence: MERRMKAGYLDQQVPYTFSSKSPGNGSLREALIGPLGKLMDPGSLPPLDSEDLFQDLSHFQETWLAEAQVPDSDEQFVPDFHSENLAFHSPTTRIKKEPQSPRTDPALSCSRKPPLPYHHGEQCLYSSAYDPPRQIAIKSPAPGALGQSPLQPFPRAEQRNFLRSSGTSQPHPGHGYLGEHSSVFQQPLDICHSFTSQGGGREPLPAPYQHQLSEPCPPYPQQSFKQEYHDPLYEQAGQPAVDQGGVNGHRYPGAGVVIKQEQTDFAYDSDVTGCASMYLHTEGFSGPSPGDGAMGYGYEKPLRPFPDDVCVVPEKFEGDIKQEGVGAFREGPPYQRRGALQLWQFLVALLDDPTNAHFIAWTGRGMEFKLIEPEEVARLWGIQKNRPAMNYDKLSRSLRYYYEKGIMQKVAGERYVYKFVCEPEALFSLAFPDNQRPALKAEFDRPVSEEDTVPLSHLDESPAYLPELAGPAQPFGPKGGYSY

The next assay has as its target ETV1 (UniProt P50549).
For another assay, the target named is T4, ERF (UniProt P50548).
T4 sequence: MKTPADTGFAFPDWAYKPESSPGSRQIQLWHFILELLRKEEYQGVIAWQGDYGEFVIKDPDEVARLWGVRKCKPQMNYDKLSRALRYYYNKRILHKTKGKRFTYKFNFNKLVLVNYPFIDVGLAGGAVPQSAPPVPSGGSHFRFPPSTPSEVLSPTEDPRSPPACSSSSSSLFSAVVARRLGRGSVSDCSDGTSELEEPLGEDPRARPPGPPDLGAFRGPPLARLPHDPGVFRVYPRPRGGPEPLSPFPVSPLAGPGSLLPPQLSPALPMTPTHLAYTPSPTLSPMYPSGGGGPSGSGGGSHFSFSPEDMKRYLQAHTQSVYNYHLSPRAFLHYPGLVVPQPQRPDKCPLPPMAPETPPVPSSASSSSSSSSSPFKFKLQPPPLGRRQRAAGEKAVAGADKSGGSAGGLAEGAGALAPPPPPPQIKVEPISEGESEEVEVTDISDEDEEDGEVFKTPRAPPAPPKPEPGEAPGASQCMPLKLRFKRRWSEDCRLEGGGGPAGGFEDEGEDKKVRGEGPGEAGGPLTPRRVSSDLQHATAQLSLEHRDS

Only a part is listed here, and it is no random draw. For part of these data: At the low end of the ranking the order means little. The list shows a part of the results. For part of these data: The source does not settle which construct or isoform was used.

With TCCAGT, the binding signal was determined as 0.664 with ERG; 0.663 with ELF1; 0.696 with ELK4; 0.674 in the assay with ETV4; 0.652 with ETV1; 0.687 in the assay with ERF.

For TAGGTA, the binding signal with ERG is 0.977; in the assay with ELF1, 0.986; with ELK4 it was 0.992; in the assay with ETV4, 0.932; with ETV1, 0.926; in the assay with ERF, 1.08.

As for CCAGCA, the binding signal was determined as 0.954 with ERG; 0.997 in the assay with ELF1; 0.946 with ELK4; 0.956 with ETV4; 0.944 in the assay with ETV1; 0.917 with ERF.

On to GGGCAT, for which the binding signal with ERG came out at 0.921; in the assay with ELF1, 0.848; with ELK4, 0.858; with ETV4, 0.917; in the assay with ETV1, 0.887; in the assay with ERF, 0.905.

In the case of CTGGGG, the binding signal with ERG came out at 0.845; in the assay with ELF1, 0.811; with ELK4, 0.983; in the assay with ETV4, 0.886; with ETV1, 0.86; in the assay with ERF, 0.877.

With AATCGT, the binding signal stood at 0.902 in the assay with ERG; 0.833 with ELF1; 0.94 with ELK4; 0.894 in the assay with ETV4; 0.909 with ETV1; 0.84 with ERF.

Consider TCCGAG, for which the binding signal with ERG was determined as 0.928; with ELF1, 0.944; in the assay with ELK4, 0.864; in the assay with ETV4, 0.913; with ETV1, 0.809; with ERF, 0.877.

With GACGTT, the binding signal in the assay with ERG stood at 0.975; in the assay with ELF1 it was 0.964; with ELK4 it was 0.982; in the assay with ETV4, 0.933; with ETV1 it was 0.869; with ERF, 0.857.

Take GGTCCA: the binding signal with ERG was 0.875; with ELF1, 0.885; with ELK4 it was 0.957; with ETV4, 0.921; with ETV1, 0.821; in the assay with ERF it was 0.889.

CCAGAT: the binding signal in the assay with ERG is 0.94; in the assay with ELF1, 0.91; in the assay with ELK4, 0.937; in the assay with ETV4 it was 0.824; with ETV1, 0.953; in the assay with ERF, 0.929.

AGAGCT: the binding signal with ERG is 0.921; with ELF1, 0.986; with ELK4, 0.95; in the assay with ETV4, 0.934; with ETV1, 0.923; with ERF, 0.956.

As to AGACTC, the binding signal in the assay with ERG was found to be 0.943; in the assay with ELF1, 0.938; with ELK4, 0.79; in the assay with ETV4, 0.964; with ETV1, 0.92; with ERF, 0.981.

GTATCG: the binding signal with ERG was 0.971; in the assay with ELF1 it was 0.949; in the assay with ELK4 it was 0.954; in the assay with ETV4, 0.868; in the assay with ETV1, 0.955; with ERF, 0.91.

Turning to CGAGTA, the binding signal came to 0.807 in the assay with ERG; 0.876 with ELF1; 0.881 with ELK4; 0.823 with ETV4; 0.879 with ETV1; 0.915 with ERF.

In the case of TAGGCC, the binding signal with ERG amounted to 0.893; with ELF1, 0.965; with ELK4, 0.951; with ETV4, 0.966; with ETV1, 0.97; with ERF it was 0.994.

In the case of AGGCAC, the binding signal was found to be 0.885 in the assay with ERG; 0.88 in the assay with ELF1; 0.891 in the assay with ELK4; 0.894 with ETV4; 0.902 in the assay with ETV1; 0.857 in the assay with ERF.

Regarding GCGACA, the binding signal in the assay with ERG was 0.953; with ELF1 it was 1; with ELK4, 0.986; with ETV4 it was 0.971; with ETV1 it was 0.916; with ERF, 1.04.

Regarding GGAATG, the binding signal with ERG is 0.885; in the assay with ELF1, 0.854; in the assay with ELK4 it was 0.874; with ETV4, 0.893; with ETV1, 0.793; in the assay with ERF, 0.874.

Take TCAAGA: the binding signal in the assay with ERG was found to be 0.869; in the assay with ELF1, 0.888; with ELK4 it was 0.818; with ETV4, 0.827; in the assay with ETV1, 0.838; with ERF, 0.851.

In the case of TTGGAT, the binding signal is 0.959 in the assay with ERG; 1.01 in the assay with ELF1; 1.04 with ELK4; 1.05 with ETV4; 0.976 with ETV1; 0.925 in the assay with ERF.

For the sequence CAGATC, the binding signal stood at 0.879 in the assay with ERG; 0.938 with ELF1; 0.876 in the assay with ELK4; 0.935 with ETV4; 0.984 with ETV1; 0.906 in the assay with ERF.

As for GCGCGT, the binding signal stood at 0.795 with ERG; 0.848 in the assay with ELF1; 0.913 with ELK4; 0.802 with ETV4; 0.874 in the assay with ETV1; 0.841 with ERF.

For GCCAGA, the binding signal was 0.695 with ERG; 0.645 with ELF1; 0.746 with ELK4; 0.652 in the assay with ETV4; 0.713 in the assay with ETV1; 0.61 with ERF.

As to TAAGGC, the binding signal in the assay with ERG came out at 0.867; in the assay with ELF1 it was 0.897; with ELK4 it was 0.944; in the assay with ETV4, 0.862; with ETV1 it was 0.957; with ERF it was 0.904.
